Construct, isoform or probe ends are uncertain for at least one entry. No signal at the amounts used counts as a negative.
Tested on: lysozyme
Test: dye-displacement fluorescence
Settings: YOYO-1 25 nM, aptamer 10 nM; 20 mM Tris-Cl pH 7.5, 300 mM NaCl, 5 mM MgCl2, 10 mM KCl; 25 C; 30 min incubation with target before dye; folded or branched DNA

“GGTTGGTGTGGTTGG [thrombin-binding aptamer (TBA)]”: no binding.

Source: article PMC3474971
